Experimental data taken from article PMC6690549.
These are yes or no findings as the source states them, for the method shown. Binding seen in cells or lysates may run through a third protein. Here binding means that the protein was enriched with, or labelled near, the bait; the list need not be complete.

Protein sequences, listed by entry. Tags and fused reporters are not part of them. Lines headed by an entry give the natural chain unless they say otherwise; changes in a name come on top. Chains listed by the source or under a name are the forms on record and can include a tag or linker. Residues count along the entry.
UniProt P78337: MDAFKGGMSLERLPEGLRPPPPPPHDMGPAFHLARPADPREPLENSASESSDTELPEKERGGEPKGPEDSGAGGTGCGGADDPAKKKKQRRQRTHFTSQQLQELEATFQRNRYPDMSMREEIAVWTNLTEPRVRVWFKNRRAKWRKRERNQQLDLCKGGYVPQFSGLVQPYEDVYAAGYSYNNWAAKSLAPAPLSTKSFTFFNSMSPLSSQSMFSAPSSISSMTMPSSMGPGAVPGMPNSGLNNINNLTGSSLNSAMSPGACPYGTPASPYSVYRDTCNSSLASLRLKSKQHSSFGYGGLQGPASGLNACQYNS
Nucleophosmin (NPM1) (P06748-3, form named): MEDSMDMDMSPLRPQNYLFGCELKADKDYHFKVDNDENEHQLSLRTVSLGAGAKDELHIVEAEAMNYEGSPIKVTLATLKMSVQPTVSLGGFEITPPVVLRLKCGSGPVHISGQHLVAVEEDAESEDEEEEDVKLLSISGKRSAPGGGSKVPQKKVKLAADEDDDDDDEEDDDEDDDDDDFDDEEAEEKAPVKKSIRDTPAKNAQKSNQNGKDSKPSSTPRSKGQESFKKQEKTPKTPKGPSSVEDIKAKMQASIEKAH
UniProt P31943: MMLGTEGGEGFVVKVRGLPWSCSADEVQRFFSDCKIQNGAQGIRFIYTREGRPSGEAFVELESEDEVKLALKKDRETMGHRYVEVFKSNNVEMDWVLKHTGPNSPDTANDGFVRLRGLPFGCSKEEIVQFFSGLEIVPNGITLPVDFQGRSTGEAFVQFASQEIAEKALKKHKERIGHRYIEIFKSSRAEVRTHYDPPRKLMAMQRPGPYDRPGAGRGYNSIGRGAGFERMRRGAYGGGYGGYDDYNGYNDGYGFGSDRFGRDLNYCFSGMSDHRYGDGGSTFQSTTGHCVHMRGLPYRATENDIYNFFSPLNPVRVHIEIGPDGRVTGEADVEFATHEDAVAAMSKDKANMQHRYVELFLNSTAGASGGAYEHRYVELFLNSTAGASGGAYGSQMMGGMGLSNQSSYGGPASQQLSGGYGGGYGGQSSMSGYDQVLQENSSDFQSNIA
UniProt P38646, residues 47-679: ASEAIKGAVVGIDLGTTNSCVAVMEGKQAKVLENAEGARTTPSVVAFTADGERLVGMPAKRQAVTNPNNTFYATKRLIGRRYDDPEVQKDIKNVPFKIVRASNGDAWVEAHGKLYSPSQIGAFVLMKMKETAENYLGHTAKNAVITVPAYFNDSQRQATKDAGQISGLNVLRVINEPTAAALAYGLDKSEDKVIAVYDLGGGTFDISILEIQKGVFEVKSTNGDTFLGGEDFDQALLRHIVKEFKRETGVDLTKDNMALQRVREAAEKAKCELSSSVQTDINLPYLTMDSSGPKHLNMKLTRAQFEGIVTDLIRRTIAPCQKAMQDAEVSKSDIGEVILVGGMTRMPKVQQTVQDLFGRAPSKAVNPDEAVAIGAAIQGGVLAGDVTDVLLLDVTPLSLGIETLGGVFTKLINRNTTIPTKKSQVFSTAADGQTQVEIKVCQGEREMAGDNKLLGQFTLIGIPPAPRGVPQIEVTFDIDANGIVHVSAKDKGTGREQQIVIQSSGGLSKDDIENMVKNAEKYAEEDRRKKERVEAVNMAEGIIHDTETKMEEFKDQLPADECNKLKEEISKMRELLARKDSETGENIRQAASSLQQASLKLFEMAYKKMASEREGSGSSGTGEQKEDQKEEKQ
Heterogeneous nuclear ribonucleoprotein A/B (hnRNP A/B) (Q99729-3, form named): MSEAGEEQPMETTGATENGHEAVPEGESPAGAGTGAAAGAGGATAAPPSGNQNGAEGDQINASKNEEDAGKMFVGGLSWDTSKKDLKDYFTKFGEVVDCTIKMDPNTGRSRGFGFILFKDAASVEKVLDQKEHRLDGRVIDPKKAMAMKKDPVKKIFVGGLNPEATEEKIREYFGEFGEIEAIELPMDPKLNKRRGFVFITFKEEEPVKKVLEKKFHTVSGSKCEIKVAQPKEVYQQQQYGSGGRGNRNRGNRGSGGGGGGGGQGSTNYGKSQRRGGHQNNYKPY

B1: Heterogeneous nuclear ribonucleoprotein A0 (hnRNP A0) (protein, UniProt Q13151 1-305)
chain: MENSQLCKLFIGGLNVQTSESGLRGHFEAFGTLTDCVVVVNPQTKRSRCFGFVTYSNVEEADAAMAASPHAVDGNTVELKRAVSREDSARPGAHAKVKKLFVGGLKGDVAEGDLIEHFSQFGTVEKAEIIADKQSGKKRGFGFVYFQNHDAADKAAVVKFHPIQGHRVEVKKAVPKEDIYSGGGGGGSRSSRGGRGGRGRGGGRDQNGLSKGGGGGYNSYGGYGGGGGGGYNAYGGGGGGSSYGGSDYGNGFGGFGSYSQHQSSYGPMKSGGGGGGGGSSWGGRSNSGPYRGGYGGGGGYGGSSF

target: FLAG-tagged wild-type PITX1 (paired-like homeodomain 1) (human) (UniProt P78337); assay: affinity purification with mass spectrometry; whole cell extracts of U2OS cells stably expressing FLAG-PITX1; anti-FLAG M2 affinity gel, 24 h at 4°C, lysis buffer 100 mM Tris HCl pH 7.5, 300 mM NaCl, 2 mM EDTA, 2% Triton X-100; eluted with FLAG peptide; trypsin digest, nanoLC/MS/MS; control: empty FLAG vector cells

binding, binds:
Zinc finger CCHC domain-containing protein 10 (ZCCHC10), endogenous (from UniProt Q8TBK6-1 1-192)
Nucleophosmin (NPM1) (from UniProt P06748-3 1-259)
Heterogeneous nuclear ribonucleoprotein H (hnRNP H) (from UniProt P31943 1-449)
75 kDa glucose-regulated protein (HSPA9) (from UniProt P38646 47-679)
Heterogeneous nuclear ribonucleoprotein A/B (hnRNP A/B) (from UniProt Q99729-3 1-285)
B1
